Measurements reported in PubChem BioAssay AID1224826 (NIAID, 2016).
The deposit covers about 17,000 reagents; shown is a random part of them. About 1,110 of all reagents (6.6%) count as active. 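Active means lowered or raised reporter signal; replicate intensities are raw and not normalised per plate.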 The numbers tell different reagents against one gene apart. No sequences are given here.

Purpose: 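Regulators of Tlr4 signalling leading to Tnf-alpha expression in macrophages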 (primary screen)
Cell system: RAW264.7 G9 macrophages from mouse bearing reporters for p65 (GFP) and the Tnf promoter (mCherry)
Reagent: siRNA pool against mouse genes, 100 nM
Duration: 16 h of LPS stimulation, after 2 days of siRNA transfection
Treatment: bacterial lipopolysaccharide (Salmonella minnesota R595), 10 ng/ml
Detection: 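Imaged Tnf reporter mCherry in nuclei, minus background, normalised per plate to the median and expressed as robust z-scores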
Direction: Tnf reporter robust z-score: higher = stronger Tnf promoter reporter signal after LPS; Tnf reporter intensity: higher = stronger Tnf promoter reporter signal
Call rule: 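a well counts as active at a score of -1.3 or below (Tlr4 knock-down control median) or above 3 (raised signal); controls and wells holding fewer than 50 cells are excluded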
Calls: active = Tnf reporter clearly lowered or raised; inactive = no clear change in Tnf reporter

Target gene | reagent | Tnf reporter robust z-score | fewer than 50 cells in well | Tnf reporter intensity, replicate 1 | Tnf reporter intensity, replicate 2 | activity call
Rnf138rt1 (ring finger protein 138, retrogene 1) | 1 | 2.28 | enough cells in well | 372 | 150 | inactive
Anp32b (acidic nuclear phosphoprotein 32 family member B) | 1 | 3.26 | enough cells in well | 473 | 355 | active
Or52h9 (olfactory receptor family 52 subfamily H member 9) | 1 | -0.04 | enough cells in well | 105 | 107 | inactive
Fancc (Fanconi anemia, complementation group C) | 1 | 0.34 | enough cells in well | 295 | 212 | inactive
Rerg (RAS-like, estrogen-regulated, growth-inhibitor) | 1 | 0.97 | enough cells in well | 139 | 201 | inactive
Pcdhga10 (protocadherin gamma subfamily A, 10) | 1 | 0.18 | enough cells in well | 147 | 150 | inactive
Eya3 (EYA transcriptional coactivator and phosphatase 3) | 1 | 2.34 | enough cells in well | 444 | 375 | inactive
Trp53i11 (transformation related protein 53 inducible protein 11) | 1 | -0.8 | enough cells in well | 202 | 78 | inactive
Pomgnt2 | 1 | 0.33 | enough cells in well | 167 | 217 | inactive
Nde1 (nudE neurodevelopment protein 1) | 1 | -0.23 | enough cells in well | 222 | 207 | inactive
Myo3a (myosin IIIA) | 1 | 1.7 | enough cells in well | 310 | 252 | inactive
Prdx6 (peroxiredoxin 6) | 1 | -0.66 | enough cells in well | 168 | 170 | inactive
Serpina6 (serine (or cysteine) peptidase inhibitor, clade A, member 6) | 1 | -0.55 | enough cells in well | 210 | 190 | inactive
Fiz1 (Flt3 interacting zinc finger protein 1) | 1 | -0.89 | enough cells in well | 172 | 96.7 | inactive
Rsph1 (radial spoke head 1 homolog (Chlamydomonas)) | 1 | -1 | enough cells in well | 72.8 | 64.2 | inactive
Slfn2 (schlafen 2) | 1 | – | fewer than 50 cells per well; well left out of calls | 74.1 | 92 | inactive
Spire1 (spire type actin nucleation factor 1) | 1 | -0.05 | enough cells in well | 107 | 89.4 | inactive
Mat1a (methionine adenosyltransferase 1A) | 1 | 0.04 | enough cells in well | 279 | 198 | inactive
Prdm1 (PR domain containing 1, with ZNF domain) | 1 | -0.6 | enough cells in well | 201 | 149 | inactive
Sucla2 (succinate-Coenzyme A ligase, ADP-forming, beta subunit) | 1 | 1.56 | enough cells in well | 112 | 142 | inactive
Nme7 (NME/NM23 family member 7) | 1 | -0.34 | enough cells in well | 162 | 154 | inactive
Ca3 (carbonic anhydrase 3) | 1 | -0.41 | enough cells in well | 127 | 171 | inactive
Heg1 (heart development protein with EGF-like domains 1) | 1 | – | fewer than 50 cells per well; well left out of calls | 144 | 57.3 | inactive
Heg1 (heart development protein with EGF-like domains 1) | 2 | – | fewer than 50 cells per well; well left out of calls | 255 | 321 | inactive
Nr5a2 (nuclear receptor subfamily 5, group A, member 2) | 1 | 0.66 | enough cells in well | 336 | 190 | inactive
Gsdmc3 (gasdermin C3) | 1 | 0.21 | enough cells in well | 198 | 194 | inactive
Psmd7 (proteasome (prosome, macropain) 26S subunit, non-ATPase, 7) | 1 | 0.66 | enough cells in well | 279 | 254 | inactive
Card11 (caspase recruitment domain family, member 11) | 1 | 0.03 | enough cells in well | 138 | 217 | inactive
Atp5po (ATP synthase peripheral stalk subunit OSCP) | 1 | -0.7 | enough cells in well | 143 | 114 | inactive
Or7g22 (olfactory receptor family 7 subfamily G member 22) | 1 | 3.74 | enough cells in well | 203 | 291 | active
Cd1d2 (CD1d2 antigen) | 1 | 0.26 | enough cells in well | 181 | 310 | inactive
Lsm14a (LSM14A mRNA processing body assembly factor) | 1 | – | fewer than 50 cells per well; well left out of calls | 235 | 85.7 | inactive
Cbr4 (carbonyl reductase 4) | 1 | 2.07 | enough cells in well | 301 | 409 | inactive
Adgrb1 (adhesion G protein-coupled receptor B1) | 1 | -0.36 | enough cells in well | 176 | 282 | inactive
Prrx2 (paired related homeobox 2) | 1 | -0.87 | enough cells in well | 169 | 140 | inactive
Ulk4 (unc-51-like kinase 4) | 1 | -1.57 | enough cells in well | 81.4 | 70.9 | active
Alg9 (ALG9 alpha-1,2-mannosyltransferase) | 1 | 4.37 | enough cells in well | 428 | 306 | active
Chid1 (chitinase domain containing 1) | 1 | -0.46 | enough cells in well | 110 | 161 | inactive
Brf1 | 1 | – | fewer than 50 cells per well; well left out of calls | 131 | 232 | inactive
Agpat4 (1-acylglycerol-3-phosphate O-acyltransferase 4) | 1 | 1.43 | enough cells in well | 324 | 260 | inactive

Entries listed so far called active (4):
Target gene | reagent | Tnf reporter robust z-score | fewer than 50 cells in well | Tnf reporter intensity, replicate 1 | Tnf reporter intensity, replicate 2 | activity call
Anp32b (acidic nuclear phosphoprotein 32 family member B) | 1 | 3.26 | enough cells in well | 473 | 355 | active
Or7g22 (olfactory receptor family 7 subfamily G member 22) | 1 | 3.74 | enough cells in well | 203 | 291 | active
Ulk4 (unc-51-like kinase 4) | 1 | -1.57 | enough cells in well | 81.4 | 70.9 | active
Alg9 (ALG9 alpha-1,2-mannosyltransferase) | 1 | 4.37 | enough cells in well | 428 | 306 | active
